In patent publication US11319526B2, “Methods and compositions for making antibodies and antibody derivatives with reduced core fucosylation” (Seagen Inc., priority 2008, dated 2022):
At least one read-out could not be matched to a standard name with certainty.

Tested on: CHO DG44 cell line producing h1F6
Test: Incorporation of fucose analogs into antibodies (h1F6 from CHO DG44 culture)
Format: cell-based, Chinese hamster
Method: The effects of fucose analogs on antibody core fucosylation were tested at concentrations of […] and 1 mM as follows: A CHO DG44 cell line producing a humanized IgG1 anti-CD70 monoclonal antibody, h1F6 (see International Patent Publication WO 06/113909) was cultured at 7.5×10^5 cells per mL in 2 mLs of CHO culture media at 37°, 5% CO2 and shaking at 100 RPM in a 6 well tissue culture plate. Media was supplemented with insulin like growth factor (IGF), penicillin, streptomycin and either 1 mM or 50 μM of the fucose analog (prepared as described supra). On day 5 post inoculation, the culture was centrifuged at 13000 RPM for 5 minutes to pellet cells; antibodies were then purified from supernatant.
Antibody purification was performed by applying the conditioned media to protein A resin pre-equilibrated with 1× phosphate buffered saline (PBS), pH 7.4. After washing resin with 20 resin bed volumes of 1×PBS, antibodies were eluted with 5 resin bed volumes of Immunopure IgG elution buffer (Pierce Biotechnology, Rockford, Ill.). A 10% volume of 1M tris pH 8.0 was added to neutralize the eluted fraction. The amount of non-core fucosylated antibody produced was determined as described in Example 7.
Certain other fucose analogs were tested for their ability to be incorporated into antibodies. These fucose analogs were tested at concentrations of 50 μM and 1 mM using the methodology as described above and in Example 7.

SMILES	% Incorporation (incorporation into antibody, concentration not stated in the cell (tested at 50 μM and 1 mM))	% Incorporation (1 mM and 50 uM)
C/C=C\[C@@](C)(O)[C@@H](O)[C@@H](O)[C@H](O)C=O.CC(=O)OO [5-(Z)-propenyl fucose peracetate]	~30%	
CC[C@@H]1OC(OC(C)=O)[C@@H](OC(C)=O)[C@H](OC(C)=O)[C@H]1OC(C)=O (stereo partly drawn) [5-ethyl fucose peracetate, (3S,4R,5S,6S)-6-ethyl-tetrahydro-2H-pyran-2,3,4,5-tetrayl tetraacetate]		>90%
CC(=O)OC1OC(CF)[C@@H](OC(C)=O)[C@@H](OC(C)=O)[C@@H]1OC(C)=O (stereo partly drawn) [Fluoromethylene fucose, (3S,4R,5S)-6-(fluoromethyl)tetrahydro-2H-pyran-2,3,4,5-tetrayl tetraacetate]		>90%
